Changes are numbered by the printed parent chain. These are yes or no findings as the source states them, for the method shown. A result given as binding can be weak or reduced; the word gives no strength.
B1: PB−1キメラ抗体(ChPB-1NN VH/ChPB-1NN VL) (antibody, human IgG1, V domains shown)
VH: EVRLQQSGPELVKPGTSVKISCKASGYSFTGYYMHWVKQSPVKSLEWIGRIIPYNGATSYNQNFKDKASLTVDKSSRTAYMDLHSLTSEDSAVYYCARSRYYGRAPYYFDYWGQGTTLTVSS
VL: DVVVTQTPLSLPVSLGDQASISCRSSQSIVHSNGNTYLEWYLQKPGQSPKLLIYKVSNRFSGVPDRISGSGSGTDFTLKISRVEAGDLGVYSCFQGSHVPFTFGSGTKLEIK
B2: PB−1ヒト化抗体 HuPB-1 VH1/HuPB-1 VL1 (antibody, human IgG1, V domains shown)
VH: QVQLVQSGAEVKKPGASVKVSCKASGYSFTGYYMHWVRQAPGQRLEWIGRIIPYSGATSYNQNFKDRATLTVDTSASTAYMELSSLRSEDTAVYYCARSRYYGRAPYYFDYWGQGTTVTVSS
VL: DIVMTQSPLSLPVTPGEPASISCRSSQSIVHSSGNTYLEWYLQKPGQSPQLLIYKVSNRFSGVPDRFSGSGSGTDFTLKISRVEAEDVGVYSCFQGSHVPFTFGGGTKVEIK
B3: PB−1ヒト化抗体 HuPB-1 VH2/HuPB-1 VL1 (antibody, human IgG1, V domains shown)
VH: B2 VH with T74K
VL: B2 VL
B4: PB−1ヒト化抗体 HuPB-1 VH1/HuPB-1 VL2 (antibody, human IgG1, V domains shown)
VH: B2 VH
VL: B2 VL with F67I
B5: PB−1ヒト化抗体 HuPB-1 VH2/HuPB-1 VL2 (antibody, human IgG1, V domains shown)
VH: B2 VH with T74K
VL: B2 VL with F67I

Key:
A-peak-RSA (rabbit) [1] = experiment: ELISA, concentration series on immobilised A-peak-RSA (Figure 36)
A-peak-RSA (rabbit) [2] = experiment: ELISA on immobilised A-peak-RSA, antibody 50 and 100 ng/mL

Row | Binder | binding (A-peak-RSA (rabbit) [1]) | binding (A-peak-RSA (rabbit) [2])
1 | B1 | binds | binds
2 | B2 | binds | binds
3 | B3 | binds | binds
4 | B4 | binds | binds
5 | B5 | binds | binds

Reference: patent JP2021136920A
